Results as given in paper PMC12040169 (PLOS Biology, 2025).
The list shows a part of the results.

Tested on: T1, CTL2-GFP (C. trachomatis L2/434/Bu, GFP-expressing)
T1 construct: L2/434/Bu, GFP-expressing
Set-up: species or system HeLa; Intracellular C. trachomatis growth in HeLa cells, bulk GFP fluorescence relative to DMSO
Details: bulk GFP, single well; 28.5 h, 10 µM; inhibitor

Compound | % of control remaining [%]
COc1ccccc1-c1nn2c(Cn3cnc4ccccc43)nnc2s1 [CBK268218] | 126.923
COCCn1cc(C(=O)N2CCN3CCCCC3C2)c2ccccc21 (stereo not drawn) [CBK305287] | 126.714
COCCN(CCOC)C(=O)Nc1ccc(F)c(NC(C)=O)c1 [CBK307705] | 120.509
C[C@@H](Cn1c(C(F)(F)F)cc2cccnc21)NC(=O)C1CCC1 [CBK283230] | 129.395
COc1ccc(-c2nc(-c3ccoc3)cnc2N)cc1OC [CBK063964] | 191.34
Cc1occc1-c1nnc(SCC(=O)Nc2cccc3nsnc23)o1 [CBK268979] | 125.333
COc1ccccc1-c1nc(C2CCCN2C(=O)N[C@@H](C)c2ccccc2)n2ccccc12 (stereo partly drawn) [CBK046625] | 93.504
CN1CCN(c2ccc(NC(=O)c3cccc(Br)c3)cc2)CC1 [CBK266140] | 142.115
CCn1c(SCC(=O)N2c3ccccc3Sc3ccccc32)nnc1C(C)Oc1ccccc1 (stereo not drawn) [CBK266290] | 191.191
CSc1nc2ccc(NS(=O)(=O)c3ccc(Cl)c(C(=O)O)c3)cc2s1 [CBK297541] | 143.631
S=C(NCc1cccs1)NC1CC1 [CBK008520] | 135.401
Cc1ccc2[nH]c3c(c2c1)CCNCC3 [CBK004811] | 114.694
COC(=O)c1cccn2cc(CN3CCSC(C)C3)nc12 (stereo not drawn) [CBK304958] | 108.283
CSCCC(NS(=O)(=O)c1ccc(I)cc1)C(=O)O (stereo not drawn) [CBK268768] | 174.927
CN1CCN(C(=O)c2ccc(-c3ccccc3)nc2N(C)C)CC1 [CBK106115] | 100
Cc1ccc(CN(CCCn2ccnc2)Cc2cccnc2)o1 [CBK283100] | 136.6
O=C(O)C(CCO)Sc1nnc(Nc2ccc(Oc3ccccc3)cc2)s1 (stereo not drawn) [CBK296631] | 150.881
O=[N+]([O-])c1ccc(-c2ccc(/C=C/c3cc(O)c4ccccc4n3)o2)cc1 [CBK267792] | 104.377
CC(C)(C)c1ccc(S(=O)(=O)N2CCCC[C@H]2CCOC(=O)/C=C\C(=O)O)cc1 [CBK200069] | 106.941
CCc1nn(CC(=O)NC2CCCC2)c(=O)c2cc3ccsc3n12 [CBK284134] | 125.274
Cc1cccc(Nc2ccc(C3CCCCN3Cc3ccc4nccnc4c3)cn2)n1 (stereo not drawn) [CBK285536] | 109.541
CC(C)N(C)C1CCN(S(=O)(=O)c2cccc([N+](=O)[O-])c2)CC1 [CBK294462] | 140.86
O=C(O)c1cccc(S(=O)(=O)Nc2nc3ccccc3s2)c1 [CBK161138] | 91.9554
CNC(=S)N(Cc1ccc(S(N)(=O)=O)cc1)C1CC(=O)N(c2ccc(OC)cc2)C1=O (stereo not drawn) [CBK262940] | 101.268
Cc1oc(C(C)(C)C)cc1C(=O)Nc1ccc(C(F)(F)F)cc1 [CBK057251] | 127.24
CC(=O)N1CCCN(Cc2c(C(C)C)[nH]c3ncccc23)CC1 [CBK285333] | 123.324

Compound | % of control remaining [%]
CC(C)(CNC(=O)Cn1cc(C(=O)Nc2ccc(F)cc2)ccc1=O)c1cccc(F)c1 [CBK286079] | 117.131
NS(=O)(=O)c1ccc(CNC(=O)c2cc(-c3cccc(Cl)c3)nc3ccccc23)cc1 [CBK267774] | 136.795
CN(Cc1ccccc1)Cc1nc2c([nH]1)c(=O)[nH]c(=O)n2C [CBK269442] | 81.0223
O=C(NCCN1CCOCC1)c1cc(-c2ccc(Cl)cc2)nc2ccccc12 [CBK262650] | 113.781
COC(=O)c1c(NC(=S)Nc2cn(C)nc2C(N)=O)sc2c1CCCCC2 [CBK266849] | 119.703
CS(=O)(=O)NC1CCCN(c2ncnc3ccccc23)C1 (stereo not drawn) [CBK305619] | 100.461
CN1CCN(CC(=O)Nc2ccc(Cl)cc2C(=O)c2ccccc2)CC1 [CBK266246] | 140.43
Cc1c(C(=O)NCCCCn2ccnc2)[nH]c2ccccc12 [CBK283246] | 107.216
CCN1CCOC(CNc2nc(-c3ccncc3)nc3c2CCC3)C1 (stereo not drawn) [CBK306215] | 86.3228
Cc1nonc1NC(=O)CN1CCCC1 [CBK261840] | 109.329
CC(C)(C)c1cc(C(=O)Nc2ccncc2)n(Cc2ccc(Cl)cc2Cl)n1 [CBK107284] | 26.5354
Cc1ccc(Cl)c(NC(=O)NCCN2CCN(c3ccccc3[N+](=O)[O-])CC2)c1 [CBK267293] | 133.194
CCOC(=O)CN1CCN(c2nccnc2OCCN2CCOCC2)CC1 [CBK082897] | 103.416
c1ccc2c(c1)OCC(c1nn3c(-c4ccncc4)nnc3s1)O2 (stereo not drawn) [CBK288560] | 114.739
CC(=O)c1ccc(-c2ccc(C(=O)N3CCN(C)CC3)c(N3CCOCC3)n2)s1 [CBK106181] | 154.189
COCc1cn(C[C@H]2CC3CCN2C[C@@H]3C(=O)NC(C)C)nn1 (stereo partly drawn) [CBK288733] | 126.127
COc1ccnc(N2CCN(C(=O)c3ccc(C)n3C)CC2)n1 [CBK305803] | 131.637
c1ncn(C2CCCCC2)c1C1CCCCC1 [CBK016758] | 112.633
O=C(c1nccc2ccccc12)N1CCc2ccccc21 [CBK200405] | 72.545
CC(C)(C)NC(=O)C1C2CCC3(CC(=O)c4ccccc4O3)C21 (stereo not drawn) [CBK284821] | 147.976
CCOc1cccc2cc(C(=O)N3CCN(Cc4ccccc4)CC3)c(=O)oc12 [CBK270259C] | 146.391
COc1cc(CN2CCN(c3ccccn3)CC2)cc(Br)c1O [CBK025770] | 137.786
COc1ccccc1C1C(C(=O)c2sc(C)nc2C)=C(O)C(=O)N1CCCN1CCOCC1 (stereo not drawn) [CBK266592] | 116.393
Cc1ccc(S(=O)(=O)Nc2cccc3ccccc23)c([N+](=O)[O-])c1 [CBK267381] | 145.679
c1ccc(CN2CCN(Cc3c[nH]c(-c4ccccc4)n3)CC2)cc1 [CBK074775] | 106.687

Arranged by number of heavy atoms (ascending): part of the list above.
Compound | % of control remaining [%]
O=C(O)c1cccc(S(=O)(=O)Nc2nc3ccccc3s2)c1 [CBK161138] | 91.9554
Cc1ccc(CN(CCCn2ccnc2)Cc2cccnc2)o1 [CBK283100] | 136.6
CNC(=S)N(Cc1ccc(S(N)(=O)=O)cc1)C1CC(=O)N(c2ccc(OC)cc2)C1=O (stereo not drawn) [CBK262940] | 101.268
COc1ccccc1C1C(C(=O)c2sc(C)nc2C)=C(O)C(=O)N1CCCN1CCOCC1 (stereo not drawn) [CBK266592] | 116.393
